# Experimental data from PubChem BioAssay AID2685 (National Center for Advancing Translational Sciences (NCATS), 2010).
# The list shows a part of the results. The main result of the screen is listed elsewhere. These columns were measured beside it and carry no call. Most of these compounds were active or inconclusive in the main read-out, so they are no random draw. Words in brackets tell the shape of the fitted curve; partial curves, single points and poor fits give uncertain potencies.
# Test: qHTS Assay for Lipid Storage Modulators in Drosophila S3 Cells;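 on cell number change: cells counted by Cell Tracker Red CMTPX staining in the red channel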
# Details: BODIPY lipid droplet fluorescence, 18-24 h; for cell number change: measured here: cell count max response, cells fed with added oleic acid
# In short: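 Drosophila S3 cells got compounds at several concentrations plus oleic acid (400 uM solution). Laser-scanning cytometry with 488 nm excitation read lipid droplets at 500-530 nm and cells at 575-640 nm. Percent activity was relative to 20 uM Triacsin C.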
# [1] = measured here: cell number channel AC50, cells fed with added oleic acid
# [2] = measured here: lipid fluorescence (Fed channel) AC50, cells fed with added oleic acid
SMILES,cell number change [%],AC50 [1],AC50 [2]
Cc1cc(C)c(S(=O)(=O)c2c(C)cccc2C)c(Cl)n1,-41.2,"11.6 µM [falling, partial curve]","9.2 µM [falling, partial curve]"
CCN1C(=O)c2ccccc2S(=O)(=O)c2ccc(C(=O)NCc3cccnc3)cc21,34.9,"29.1 µM [rising, single point]",
O=C(COC(=O)C1C2CC3OC(=O)C1C3C2)Nc1ccc(Br)cc1 (stereo unspecified),-14.3,,"0.184 µM [falling, single point]"
O=C(COc1ccc2c(-c3ccccc3)cc(=O)oc2c1)N[C@@H](Cc1c[nH]c2ccc(O)cc12)C(=O)O,23.9,,
Cc1ccc(NC(=O)COc2ncnc3sccc23)cc1S(=O)(=O)N(C)C,75.3,"18.4 µM [rising, partial curve]",
CCN1CCN(C(=O)c2ccc(C)c(S(=O)(=O)Nc3cccc(C)c3)c2)CC1,23.2,,"18.4 µM [rising, single point]"
O=C(NCCC(c1ccccc1)c1ccccc1)c1cnccn1,14.7,,"1.03 µM [rising, full curve, poor fit]"
CN(CC(=O)Nc1ccc(S(=O)(=O)N2CCCC2)cc1)CC(=O)Nc1cccc(F)c1,,,"29.1 µM [falling, single point]"
COC(=O)c1cccc(NS(=O)(=O)c2cccs2)c1C,-1.4,,
O=C(CSc1nnc(-c2ccc(C(F)(F)F)cn2)o1)Nc1cccc(Cl)c1,10.1,,"0.116 µM [falling, full curve, poor fit]"
CCCC(=O)N1CC(=O)Nc2ccc(F)cc2C1c1ccccc1 (stereo unspecified),7.11,"6.51 µM [rising, single point]","0.366 µM [rising, full curve]"
COc1cc(NC(=O)COc2ccc3c(C)cc(=O)oc3c2C)cc(OC)c1OC,,"2.06 µM [rising, single point]",
COCCNCC(=O)Nc1ccc(C)c(S(=O)(=O)N2CCCCC2)c1,-10.6,,
COc1ccc2cc(C(=O)NC3CCCCC3)c(=O)oc2c1,4.87,,"1.84 µM [rising, partial curve, poor fit]"
O=C(Nc1ccc(Br)cc1)c1ccccc1Br,-15.5,,"6.51 µM [falling, single point]"
COC1CCN(Cc2c(C(=O)N3CCN(C4CCCCC4)CC3)nc3ccccn23)CC1,8.67,,"2.91 µM [falling, full curve]"
CCc1noc2c1/C(=N\O)CC(c1ccccc1)C2 (stereo unspecified),-9.14,,
O=C(CSc1nnc(-c2ccccc2F)n1C1CC1)Nc1cccnc1Cl,,"4.61 µM [rising, single point]",
Cc1ccccc1OCC(=O)OCC(=O)N1CCc2ccccc21,-20.5,"0.058 µM [falling, full curve, poor fit]",
COc1ccc(NC(=O)N2CCCCCC2)cc1,,"0.00461 µM [falling, full curve, poor fit]","0.00461 µM [falling, full curve, poor fit]"
Cn1cccc1CNC1CCCC1,0.414,,"6.51 µM [falling, single point]"

SMILES,cell number change [%],AC50 [1],AC50 [2]
COc1ccc(OCC(=O)NNC(=O)c2c(-c3ccccc3Cl)noc2C)cc1,29.7,,
NS(=O)(=O)c1ccc(N2C(=O)C3C4CC(C(Br)C4Br)C3C2=O)cc1 (stereo unspecified),,,"0.731 µM [rising, full curve, poor fit]"
CN(C)c1ccc(C(=O)/C=C/c2ccco2)cc1,66,"9.2 µM [rising, partial curve]","6.51 µM [rising, single point]"
CCN(CC)S(=O)(=O)c1cc(C(=O)OCC(=O)c2ccc3c(c2)NC(=O)CO3)ccc1Cl,-31.4,"0.164 µM [falling, full curve]","0.13 µM [rising, partial curve, poor fit]"
Cc1ccc(N(C(=O)CCl)C(C(=O)NC2CCCCC2)c2cccnc2)cc1C (stereo unspecified),-0.141,,"32.6 µM [falling, single point]"
O=C(NC1=NC2CCCCC2N1)c1ccccc1 (stereo unspecified),0.271,,"6.51 µM [falling, full curve, poor fit]"
O=C(c1cc(-c2ccc(F)cc2)no1)N1CCN(Cc2ccc3c(c2)OCO3)CC1,7.78,,"32.6 µM [rising, single point]"
CCc1ccc(C(=O)COC(=O)CCc2nc3ccccc3c(=O)[nH]2)cc1,,,"7.31 µM [rising, partial curve]"
O=C(Nc1ccccc1)N1CCCN(c2nccc(C(F)(F)F)n2)CC1,3.7,"0.461 µM [falling, full curve]","0.82 µM [falling, single point]"
COC(=O)c1sccc1NC(=O)Nc1ccccc1C,0.578,,
CCOC(=O)C1(Cc2cccc(F)c2)CCN(C2CCOCC2)CC1,-2.28,,
COc1ccc2cc(C(=O)NCCCN3CCCC3=O)[nH]c2c1,-6.87,,
Cc1cccc(Nc2ncnc3c2cnn3Cc2ccccc2)c1,99,"14.6 µM [rising, partial curve]","23.1 µM [rising, partial curve]"
CCOc1ccc(N2C(=O)CC(N3CCN(C4CCc5ccccc5C4)CC3)C2=O)cc1 (stereo unspecified),-11.3,,
O=C(NCc1ccco1)C(c1cccs1)N(Cc1ccccc1)C(=O)Cn1nnc2ccccc21 (stereo unspecified),,"5.8 µM [rising, single point]","0.082 µM [falling, full curve, poor fit]"
O=C(O)CCNC(=O)c1cncc(Br)c1,-6.71,,"3.26 µM [falling, single point]"
CCOC(=O)c1ccc(N2C(=O)c3n[nH]c(C)c3C2c2ccc(O)cc2)cc1 (stereo unspecified),13.8,,"0.259 µM [rising, full curve]"
CN(C)S(=O)(=O)c1cc(C(=O)NCCCn2ccc3ccccc32)ccc1Cl,-35.7,"20.6 µM [falling, single point]",
CCN(CC)C(=O)N1CCN(Cc2ccc3c(c2)OCO3)CC1,32.5,"1.64 µM [rising, full curve, poor fit]",
CCCCc1ccc(-c2csc(/C(C#N)=C/c3ccc(C)o3)n2)cc1,90.5,"29.1 µM [rising, single point]","29.1 µM [rising, single point]"
Cc1nnc(SCC(=O)NNC(=O)c2ccc(Cl)cc2)s1,5.65,,"0.58 µM [rising, single point]"

SMILES,cell number change [%],AC50 [1],AC50 [2]
CCC(=O)Nc1ccc(NC(=S)NC(=O)c2cc3ccccc3o2)cc1,1.04,,"29.1 µM [falling, partial curve]"
Cn1c(=O)c2c(nc(N3CCOCC3)n2CCc2ccccc2)n(C)c1=O,5.61,,"9.2 µM [rising, partial curve]"
Cc1ccc(NC(=O)CSCC(=O)NCc2ccco2)cc1,22.5,,
CCCN1C(=O)C(NC(C)=O)c2ccccc21 (stereo unspecified),-27.7,,
CCOC(=O)c1c(N)sc(C(=O)N(CC)CC)c1C,15.8,,"13 µM [rising, partial curve, poor fit]"
Cc1cc(OC(=O)c2ccc(S(=O)(=O)N(C)C)cc2)c([N+](=O)[O-])c(=O)[nH]1,-36.2,"0.116 µM [falling, full curve, poor fit]","0.184 µM [falling, full curve]"
COc1ccccc1C(=O)NC(CCSC)C(=O)NCc1ccccn1 (stereo unspecified),-38.2,"32.6 µM [falling, single point]",
CCN(CC)c1ccc(/C=N/NC(=O)c2ccc3nc[nH]c3c2)c(O)c1,-39.5,,"1.84 µM [falling, partial curve, poor fit]"
C/C(=N\O)C(C)NC(=O)c1ccccc1 (stereo unspecified),-19.4,,"32.6 µM [falling, single point]"
Cc1cccc(CN2CCN(C(=O)CCc3nnc(C4CCCCC4)o3)CC2)c1,6.32,,"0.461 µM [falling, single point]"
Cc1ccc(S/C(=N\S(=O)(=O)c2ccc(Cl)cc2)c2ccccc2)cc1,31.8,,
CN(C)CCCN(Cc1ccccc1)C(=S)NCc1ccccc1,-11.2,,"18.4 µM [falling, partial curve]"
CCN(C(=O)CN1CCN(C)CC1)c1c(N)n(Cc2ccccc2)c(=O)[nH]c1=O,-10.2,,"0.0651 µM [rising, full curve, poor fit]"
OC(COc1ccc(-c2ccccc2)cc1)CN1CCOCC1 (stereo unspecified),-8.3,,"1.84 µM [falling, partial curve]"
Fc1ccc(Cn2c(SCc3ccc(F)c(F)c3)nnc2C(F)(F)F)cc1,35.1,"0.291 µM [rising, full curve, poor fit]",
N#Cc1ccc(C(=O)OCC(=O)NC2CCCC2)cc1,1.41,"6.51 µM [rising, single point]",
COCCCNc1nc2c(c(=O)[nH]c(=O)n2C)n1CCCc1ccccc1,1.6,,"29.1 µM [rising, single point]"
COc1ccc(-c2noc(C3CCCN(C(=O)c4cccc(F)c4)C3)n2)cc1 (stereo unspecified),3.28,"4.61 µM [rising, single point]","0.13 µM [falling, full curve, poor fit]"
O=C(NCc1cccc(C(F)(F)F)c1)C1CCC(=O)N(C2CCCCCC2)C1 (stereo unspecified),21,,"20.6 µM [rising, partial curve]"
N#Cc1ccc(S(=O)(=O)NCC(=O)OCC(=O)N2CCCC2=O)cc1,-0.694,,"0.0517 µM [falling, full curve]"

# Quoted at random: three entries already listed.
SMILES,cell number change [%],AC50 [1],AC50 [2]
C/C(=N\O)C(C)NC(=O)c1ccccc1 (stereo unspecified),-19.4,,"32.6 µM [falling, single point]"
Cc1cc(OC(=O)c2ccc(S(=O)(=O)N(C)C)cc2)c([N+](=O)[O-])c(=O)[nH]1,-36.2,"0.116 µM [falling, full curve, poor fit]","0.184 µM [falling, full curve]"
O=C(NCc1cccc(C(F)(F)F)c1)C1CCC(=O)N(C2CCCCCC2)C1 (stereo unspecified),21,,"20.6 µM [rising, partial curve]"
